Results on four sequences are retold here after patent publication US6500669.

The chains behind the UniProt entries cited, without tags or fusion partners. Where a name states a change or a piece, a line headed by the entry shows the natural chain unless it says otherwise.
UniProt P22629: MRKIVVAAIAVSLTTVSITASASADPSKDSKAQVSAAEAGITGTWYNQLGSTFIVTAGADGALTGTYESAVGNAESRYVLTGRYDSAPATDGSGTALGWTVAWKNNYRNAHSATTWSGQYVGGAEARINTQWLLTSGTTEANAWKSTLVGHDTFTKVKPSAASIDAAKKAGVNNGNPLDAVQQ

The target in series [1] is T1, hUBF (upstream binding factor, RNA polymerase I transcription factor) (Homo sapiens) (UniProt P17480).
T1 sequence (looked up, limits assumed): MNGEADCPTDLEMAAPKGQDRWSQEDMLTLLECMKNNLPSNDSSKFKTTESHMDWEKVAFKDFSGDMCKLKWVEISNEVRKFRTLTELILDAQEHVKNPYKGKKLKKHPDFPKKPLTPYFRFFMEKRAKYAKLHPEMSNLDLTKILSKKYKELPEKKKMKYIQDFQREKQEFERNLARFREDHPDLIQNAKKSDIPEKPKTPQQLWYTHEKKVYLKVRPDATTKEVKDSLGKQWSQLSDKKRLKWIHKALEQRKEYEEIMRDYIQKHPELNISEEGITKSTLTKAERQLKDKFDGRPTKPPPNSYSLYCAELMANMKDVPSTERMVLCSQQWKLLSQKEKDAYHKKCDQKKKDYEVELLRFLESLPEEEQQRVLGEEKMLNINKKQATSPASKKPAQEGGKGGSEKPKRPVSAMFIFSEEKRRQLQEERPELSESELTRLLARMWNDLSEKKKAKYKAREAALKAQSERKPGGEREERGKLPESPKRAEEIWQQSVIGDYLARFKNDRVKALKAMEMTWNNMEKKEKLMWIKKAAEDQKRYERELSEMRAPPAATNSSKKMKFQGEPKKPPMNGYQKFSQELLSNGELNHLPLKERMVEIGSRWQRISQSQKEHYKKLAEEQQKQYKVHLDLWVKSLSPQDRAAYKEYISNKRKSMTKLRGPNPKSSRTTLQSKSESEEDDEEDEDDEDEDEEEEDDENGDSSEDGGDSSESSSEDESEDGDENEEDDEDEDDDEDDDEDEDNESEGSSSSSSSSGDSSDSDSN
The series can be described thus: footprint. The following applies: no DNase I protection of unmodified 100-mer; purified native protein; protein details: homogeneous HeLa hUBF; label: 5' 32P; only the site is given.

Series [2] has as its target T2, uracil glycosylase (UniProt P12295).
T2 sequence (looked up, limits assumed): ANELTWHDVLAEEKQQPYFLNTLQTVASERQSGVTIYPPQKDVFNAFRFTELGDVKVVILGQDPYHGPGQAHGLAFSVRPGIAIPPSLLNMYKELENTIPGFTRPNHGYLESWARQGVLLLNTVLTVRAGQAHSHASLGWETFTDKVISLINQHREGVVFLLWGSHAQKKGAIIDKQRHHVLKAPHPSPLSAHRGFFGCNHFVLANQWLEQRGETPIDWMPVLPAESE
The series can be described thus: enzyme reaction in vitro. To be noted: TMP-biotin (psoralen-biotin) monoadduct at T7 of the central TA; deoxyuridine at position 11; uracil removed; inhibited by about 50 nM lesion-bound streptavidin and restored by free biotin; 5 mM MgCl2, 50 mM KCl, 37 C; protein details: Boehringer-Mannheim; label: 5' ….

In series [3] the target is streptavidin (UniProt P22629). The series can be described thus: EMSA. The following applies: little binding activity, data not shown, protein details: Pierce, variant of TMP-biotin monoadducted U-17. A general note: A gel shift assay detects complexes by their altered migration in electrophoresis.

For some of these results: No signal at the amounts used counts as a negative. For some of these results: Protein sequences can lack the tags named with them.

On to “CAGTCTCCTTCTGGTCTCTTCTCAGT (double strand) [Un-100 (unmodified 100 bp analog; printed part only)]”, for which the binding result in series [1] is given as “no binding”.

In the case of “CGGCCGTACGUGCGCCG / CGGCGCACGTACGGCCG [TMP-biotin monoadducted U-17]”, the “activity on this sequence” value in series [2] was “active”. “CGGCCGTACGUGCGCCG / CGGCGCACGTACGGCCG [U-17 monoadducted with psoralen derivative lacking biotin]”: in series [3] (psoralen derivative monoadduct), the binding result is given as “no binding”. Regarding “CGGCCGTACGUGCGCCG / CGGCGCACGTACGGCCG [U-17 unmodified]”, the binding result in series [3] (label: 32P) was “no binding”.
